Experimental data reported in article PMC8139589.
Construct, isoform or probe ends are uncertain for at least one entry.

The chains behind the UniProt entries cited, without tags or fusion partners. Residues count along the entry.
UniProt P01137, 279-390: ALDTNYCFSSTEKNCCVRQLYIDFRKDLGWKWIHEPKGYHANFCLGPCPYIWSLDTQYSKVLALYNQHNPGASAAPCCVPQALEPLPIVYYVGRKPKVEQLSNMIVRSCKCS

Target: TGF-beta1 (human) (UniProt P01137)
Assay: electrochemical aptasensor (SWV)
Conditions: serum, 0-150 pg/ml; phosphorothioate at positions marked *; 3' internal spacer C3; Serum as wound-exudate mimic; about 30 min incubation to equilibrium; aptamers immobilized at 10 uM in TE buffer, MCH passivation; commercial protein; label: 5' methylene blue, 3' C3 thiol; folded or branched DNA

CGCTCGGCTTCACGAGATTCGTGTCGTTGTGTCCTGTACCCGCCTTGACCAGTCACTCTAGAGCATCCGGACTG [TGF-beta1 aptamer]
binding result: binds
